Drawing on PMC8860602, this text covers binding for one substance.

By UniProt entry, the sequences of proteins in these tests, tags left out. Where a name states a change or a piece, a line headed by the entry shows the natural chain unless it says otherwise.
UniProt Q12888: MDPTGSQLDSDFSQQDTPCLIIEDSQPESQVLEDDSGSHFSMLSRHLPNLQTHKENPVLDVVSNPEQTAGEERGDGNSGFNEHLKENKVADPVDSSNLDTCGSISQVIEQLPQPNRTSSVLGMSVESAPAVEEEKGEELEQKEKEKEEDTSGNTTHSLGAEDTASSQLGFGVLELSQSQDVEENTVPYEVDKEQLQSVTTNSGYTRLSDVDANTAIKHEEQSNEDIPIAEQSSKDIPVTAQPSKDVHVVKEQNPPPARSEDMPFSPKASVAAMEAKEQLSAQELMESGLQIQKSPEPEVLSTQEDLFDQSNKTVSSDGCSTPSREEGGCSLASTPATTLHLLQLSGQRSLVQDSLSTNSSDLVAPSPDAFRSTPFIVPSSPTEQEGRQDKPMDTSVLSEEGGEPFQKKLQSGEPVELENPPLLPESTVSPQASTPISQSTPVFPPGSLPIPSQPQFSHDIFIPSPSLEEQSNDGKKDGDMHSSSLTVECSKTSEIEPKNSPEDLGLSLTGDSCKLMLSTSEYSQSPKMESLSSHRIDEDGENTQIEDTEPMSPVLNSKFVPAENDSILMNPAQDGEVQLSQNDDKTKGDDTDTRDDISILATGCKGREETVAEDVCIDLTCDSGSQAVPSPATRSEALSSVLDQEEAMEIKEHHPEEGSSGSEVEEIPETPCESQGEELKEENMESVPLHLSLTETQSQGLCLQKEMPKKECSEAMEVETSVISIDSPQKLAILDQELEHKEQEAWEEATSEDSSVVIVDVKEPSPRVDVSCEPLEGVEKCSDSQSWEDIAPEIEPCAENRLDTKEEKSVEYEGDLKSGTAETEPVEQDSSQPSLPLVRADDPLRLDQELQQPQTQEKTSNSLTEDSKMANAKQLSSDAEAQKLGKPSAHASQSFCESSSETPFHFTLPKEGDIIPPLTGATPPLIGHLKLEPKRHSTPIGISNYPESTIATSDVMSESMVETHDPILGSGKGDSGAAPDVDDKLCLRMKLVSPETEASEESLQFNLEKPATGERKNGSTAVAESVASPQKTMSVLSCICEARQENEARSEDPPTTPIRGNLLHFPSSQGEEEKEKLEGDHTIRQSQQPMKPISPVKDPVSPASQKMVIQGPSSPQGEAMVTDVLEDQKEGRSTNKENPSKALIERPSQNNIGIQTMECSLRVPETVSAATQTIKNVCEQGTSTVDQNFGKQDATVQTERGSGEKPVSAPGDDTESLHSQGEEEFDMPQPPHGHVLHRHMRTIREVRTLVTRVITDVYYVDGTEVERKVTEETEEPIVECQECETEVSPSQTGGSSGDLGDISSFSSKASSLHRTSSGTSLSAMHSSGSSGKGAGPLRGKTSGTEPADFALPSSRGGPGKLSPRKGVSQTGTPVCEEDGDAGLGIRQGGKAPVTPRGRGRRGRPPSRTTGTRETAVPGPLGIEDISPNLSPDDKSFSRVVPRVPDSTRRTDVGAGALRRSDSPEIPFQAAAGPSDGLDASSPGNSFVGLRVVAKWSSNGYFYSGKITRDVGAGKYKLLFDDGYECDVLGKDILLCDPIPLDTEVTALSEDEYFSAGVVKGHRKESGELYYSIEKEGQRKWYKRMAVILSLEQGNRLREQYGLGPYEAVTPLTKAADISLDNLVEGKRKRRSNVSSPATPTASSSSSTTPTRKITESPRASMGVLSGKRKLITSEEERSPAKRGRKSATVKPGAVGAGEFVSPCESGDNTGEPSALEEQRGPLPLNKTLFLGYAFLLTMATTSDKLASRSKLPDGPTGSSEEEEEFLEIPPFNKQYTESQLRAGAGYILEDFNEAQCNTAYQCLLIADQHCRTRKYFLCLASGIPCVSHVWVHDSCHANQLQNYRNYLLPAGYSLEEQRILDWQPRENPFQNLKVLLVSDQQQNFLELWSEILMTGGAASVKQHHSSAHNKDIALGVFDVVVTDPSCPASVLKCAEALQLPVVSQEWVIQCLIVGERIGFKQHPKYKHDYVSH

Test [1] has as its target HA-53BP1-H6 (deletion mutant of 53BP1-N, 401–500) (human) (UniProt Q12888). Nature of the test: co-IP; HA-tagged 53BP1 constructs and GFP-tagged ACLY constructs co-transfected in HEK293T cells; RIPA buffer, Protein G Sepharose, 4 °C overnight; western blot.
Test [2] concerns the target HA-53BP1-H3 (deletion mutant of 53BP1-N, 101–200) (human) (UniProt Q12888). Described as above.

Results are given in words; binding and its absence hold for the method and conditions named. Binding seen in cells or lysates may run through a third protein.

“GFP-ACLY (full length) (from UniProt P53396-1 1-1101) (enzyme)”: the binding result in test [1] and in test [2] was “no binding” each time.
